At least one compound was matched to its structure with a doubt left.
What was measured:
[1] = tested on: fibrin accumulation; experiment: Microfluidic whole blood flow assay over collagen/tissue factor reaction zone, fibrin signal, drug spiked in vitro; assay type: cell-based, human; details: spiked from 0 nM (control) to 250 nM into normal healthy blood sample, external to the device; FIG. 12A
[2] = tested on: platelet accumulation; experiment: Microfluidic whole blood flow assay over collagen/tissue factor reaction zone, platelet signal, drug spiked in vitro; assay type: cell-based, human; details: same sample, spiked from 0 nM (control) to 250 nM; FIG. 12B

## [H]/N=C(/N)c1ccc(NCc2nc3cc(C(=O)N(CCC(=O)O)c4ccccn4)ccc3n2C)cc1 [dabigatran]
[1]
  fibrin signal response to spiked drug: clear dose response
[2]
  platelet response to spiked drug: muted
